No constants are given. Whether binding was seen depends on the method and setting. In cells and extracts the contact can be indirect. Some binding calls cover weakened binding; strength is not graded here.
Columns and labels:
Test in all cases: split reporter
[1] = molecular target: PK-tagged SNAP-GLP-1R C438A (human) (UniProt P43220)
[2] = molecular target: PK-tagged SNAP-GLP-1R wild type (human) (UniProt P43220)
[3] = molecular target: ProLink (PK)-tagged human GLP-1R (human) (UniProt P43220)

The chains behind the UniProt entries cited, without tags or fusion partners. Where a name states a change or a piece, a line headed by the entry shows the natural chain unless it says otherwise. A line that says so, or that is headed by a name, gives the form on record, which may keep a tag or linker. Residues count along the entry.
ProLink (PK)-tagged human GLP-1R (P43220, residues 24-463): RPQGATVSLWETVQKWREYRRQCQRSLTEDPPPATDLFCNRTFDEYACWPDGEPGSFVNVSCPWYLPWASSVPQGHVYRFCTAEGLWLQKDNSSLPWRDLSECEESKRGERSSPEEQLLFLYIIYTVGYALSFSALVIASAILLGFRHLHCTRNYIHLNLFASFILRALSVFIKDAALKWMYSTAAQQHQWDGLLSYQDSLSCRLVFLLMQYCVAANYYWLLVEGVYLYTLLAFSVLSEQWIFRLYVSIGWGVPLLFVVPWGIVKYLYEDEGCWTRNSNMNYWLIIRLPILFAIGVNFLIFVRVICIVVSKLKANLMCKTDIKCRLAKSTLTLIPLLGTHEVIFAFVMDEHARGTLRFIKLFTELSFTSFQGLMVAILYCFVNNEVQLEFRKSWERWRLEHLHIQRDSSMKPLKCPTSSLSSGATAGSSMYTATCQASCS
PK-tagged SNAP-GLP-1R C438A (P43220, form named): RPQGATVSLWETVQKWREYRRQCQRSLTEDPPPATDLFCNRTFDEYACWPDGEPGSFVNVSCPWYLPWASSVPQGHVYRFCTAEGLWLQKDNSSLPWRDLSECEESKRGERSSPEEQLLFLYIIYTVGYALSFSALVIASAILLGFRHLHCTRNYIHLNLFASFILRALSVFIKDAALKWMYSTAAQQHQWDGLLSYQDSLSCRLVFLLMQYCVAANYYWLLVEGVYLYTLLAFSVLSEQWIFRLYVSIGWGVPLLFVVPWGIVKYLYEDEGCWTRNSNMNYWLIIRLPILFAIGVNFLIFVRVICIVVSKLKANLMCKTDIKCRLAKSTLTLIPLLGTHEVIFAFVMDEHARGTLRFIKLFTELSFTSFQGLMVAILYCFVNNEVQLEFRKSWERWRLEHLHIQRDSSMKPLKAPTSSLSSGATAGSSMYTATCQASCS

binding [1]: binds
binding [2]: binds
binding [3]: binds
Substance: beta-arrestin-2 fused to EA (beta-arrestin-2-EA) (from UniProt P32121 1-409)
